# The exact form of at least one protein or probe is not confirmed. At least one result comes from cells or an extract, where the contact may be indirect. Tags and fusion partners may be left off the protein sequences shown.
# Biological target: T1, ToIRF1 (Flag-IRF1) (Trachinotus ovatus) (UniProt A0A6M3BF88)
# T1 sequence (looked up): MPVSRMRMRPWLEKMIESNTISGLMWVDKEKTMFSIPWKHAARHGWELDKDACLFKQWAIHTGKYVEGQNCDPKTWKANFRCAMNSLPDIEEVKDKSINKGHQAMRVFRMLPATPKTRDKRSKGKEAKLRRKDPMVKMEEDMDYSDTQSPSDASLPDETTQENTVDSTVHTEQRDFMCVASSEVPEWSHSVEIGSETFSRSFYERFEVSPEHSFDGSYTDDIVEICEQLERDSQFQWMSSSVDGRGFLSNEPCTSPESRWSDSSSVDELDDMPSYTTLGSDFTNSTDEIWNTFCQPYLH
# Assay: EMSA
# Details: Beyotime EMSA/Gel-Shift Kit binding buffer (composition not stated), 25 °C, nondenaturing 4% PAGE; protein in a lysate after overexpression; residues 1-299; protein details: Flag; label: biotin
sequence,measurement,value
CAGCAGAAATCCACTGAGCGGGAAAAATAT (double strand) [IFNa3-P2-WT5 (M5 ISRE)],binding result,binds
